Where “and” joins values, the source holds several entries; their conditions need not be identical. Identical values can stand only once. This continues a long series; more values of the same kind are listed elsewhere.

For 1 molecule, Body weight change and Tumor volume results are on record in publication PMC9551036, “A selective and orally bioavailable VHL-recruiting PROTAC achieves SMARCA2 degradation in vivo” (Nature Communications, 2022).

Data set [1] can be described thus: Body weight / tolerability in xenograft studies. Format: in vivo, mouse. On the set-up: unit not given here. To be noted: day 1, individual animals. The method, then: (§1) To establish subcutaneous tumours, mice were injected with 5 × 10^6 NCI-H1568 in PBS with 5% FCS or with 1 × 10^7 A549 cells in PBS with 5% FCS. Tumour diameters were measured with a caliper three times a week. The volume of each tumour (in mm^3) was calculated according to the formula [tumour volume = length × diameter^2 × π/6]. To monitor side effects of treatment, mice were inspected daily for abnormalities and body weight was determined daily after the start of treatment. Animals were sacrificed when the tumours reached a size of 1500 mm^3. Mice were randomised into treatment groups when the average tumour size reached ~210–220 mm^3. Group sizes were calculated individually for each tumour model based on tumour growth during model establishment experiments. A power analysis was performed using a sample size calculator (https://www.stat.ubc.ca/~rollin/stats/ssize/n2.html). For both models used in the study, 10 mice per group were used for each experiment. All administrations were dosed with 10 ml/kg (s.c. and oral). Control mice were dosed subcutaneously with 10% HP-β-CD in 50% Ringer solution and orally with 15% HP-β-CD, that means the control mouse treatment was corresponding to the solvent of the compounds. Compound 6 was dosed subcutaneously either in a d1-4 q3d, d6-8 q2d, d11-13 q2d treatment (Treatment 1) or a q3 or 4d treatment (Treatment 2).

Data set [2] relates to NCI-H1568 tumour xenograft. Kind of data set: NCI-H1568 xenograft tumour growth. The note with it: qd, individual animals. In kind it is in vivo, mouse. As to the method:
as §1
For the evaluation of the statistical significance of tumour growth inhibition, a one-tailed nonparametric Mann-Whitney-Wilcoxon U-test was performed, based on the hypothesis that an effect would only be measurable in one direction (i.e. expectation of tumour inhibition but not tumour stimulation). Analysis was performed on the day indicated for each experiment. The p values obtained from the U-test were adjusted using the Bonferroni-Holm correction. By convention, p values ≤0.05 indicate significance of differences.

As to `Cc1ncsc1-c1ccc([C@H](CCCCCN2CCC(c3ccc4c(c3)n(C3CCCC3)c3nc(=O)c5c(Br)cccc5n43)CC2)NC(=O)[C@@H]2C[C@@H](O)CN2C(=O)[C@@H](NC(=O)C2(F)CC2)C(C)(C)C)cc1` [compound 11], the Body weight change in data set [1] (30 mg/kg qd) and in data set [1] (100 mg/kg qd) was 0 throughout. Further, the Tumor volume is 139.28 mm3 and 152.44 mm3 and 180.41 mm3 and 185.88 mm3 and 193.64 mm3 and 219.59 mm3 and 239.17 mm3 and 261.38 mm3 and 285.6 mm3 and 301.85 mm3 in data set [2] (30 mg/kg, Day 1); 185.56 mm3 and 165.72 mm3 and 178.07 mm3 and 269.15 mm3 and 291.38 mm3 and 273.25 mm3 and 339.58 mm3 and 304.31 mm3 and 333.67 mm3 and 309.18 mm3 in data set [2] (30 mg/kg, Day 3); 273.51 mm3 and 237.33 mm3 and 277.37 mm3 and 296.26 mm3 and 295.01 mm3 and 286.7 mm3 and 437.24 mm3 and 396.86 mm3 and 385.41 mm3 and 432.24 mm3 in data set [2] (30 mg/kg, Day 6); 618.85 mm3 and 198.88 mm3 and 487.36 mm3 and 434.9 mm3 and 444.66 mm3 and 510.94 mm3 and 332.08 mm3 and 388.77 mm3 and 571.38 mm3 and 983.58 mm3 in data set [2] (30 mg/kg, Day 20); 629.82 mm3 and 287.1 mm3 and 377.04 mm3 and 263.4 mm3 and 572.47 mm3 and 632.48 mm3 and 259.69 mm3 and 470.9 mm3 and 607.91 mm3 and 1113.72 mm3 in data set [2] (30 mg/kg, Day 22); 684.25 mm3 and 295.7 mm3 and 433.86 mm3 and 275.59 mm3 and 590.01 mm3 and 693.78 mm3 and 226.99 mm3 and 450.83 mm3 and 640.38 mm3 and 1127.5 mm3 in data set [2] (30 mg/kg, Day 24). In addition, the Tumor volume in data set [2] (30 mg/kg, Day 27) is 760.15 mm3 and 200.57 mm3 and 455.07 mm3 and 346 mm3 and 467.88 mm3 and 536.85 mm3 and 176.34 mm3 and 388.18 mm3 and 645.23 mm3 and 1092.16 mm3; in data set [2] (30 mg/kg, Day 29) it was 749.45 mm3 and 181.18 mm3 and 540.35 mm3 and 349.46 mm3 and 448.47 mm3 and 736.69 mm3 and 124.97 mm3 and 449.91 mm3 and 634.32 mm3 and 1166.56 mm3; in data set [2] (30 mg/kg, Day 31) it was 855.39 mm3 and 231.29 mm3 and 406.22 mm3 and 382.72 mm3 and 500.97 mm3 and 698.51 mm3 and 118.6 mm3 and 458.88 mm3 and 689.45 mm3 and 1386.54 mm3; in data set [2] (100 mg/kg, Day 1), 143.1 mm3 and 159.11 mm3 and 171.16 mm3 and 180.02 mm3 and 195.38 mm3 and 210.69 mm3 and 246.42 mm3 and 263.29 mm3 and 285.44 mm3 and 305.66 mm3; in data set [2] (100 mg/kg, Day 3) it was 140.99 mm3 and 211.14 mm3 and 152.07 mm3 and 226.44 mm3 and 291.48 mm3 and 280.56 mm3 and 256.22 mm3 and 319.94 mm3 and 325.86 mm3 and 340.95 mm3; in data set [2] (100 mg/kg, Day 6) it was 152.72 mm3 and 310.74 mm3 and 187.73 mm3 and 244.7 mm3 and 313.93 mm3 and 310.86 mm3 and 326.33 mm3 and 337.02 mm3 and 314.4 mm3 and 415.72 mm3. The Tumor volume was 559.64 mm3 and 478.07 mm3 and 271.78 mm3 and 457.14 mm3 and 512.59 mm3 and 521.48 mm3 in data set [2] (100 mg/kg, Day 20); 211.58 mm3 and 464.63 mm3 and 251.99 mm3 and 546.24 mm3 and 573.39 mm3 and 315.51 mm3 and 456.23 mm3 and 578.76 mm3 and 657.58 mm3 in data set [2] (100 mg/kg, Day 22); 223.29 mm3 and 462.18 mm3 and 255.31 mm3 and 564.5 mm3 and 593.13 mm3 and 321.21 mm3 and 496.06 mm3 and 593.37 mm3 and 684.77 mm3 in data set [2] (100 mg/kg, Day 24); 190.56 mm3 and 507.71 mm3 and 279.45 mm3 and 652.34 mm3 and 681.29 mm3 and 282.22 mm3 and 471.43 mm3 and 607.17 mm3 and 726.27 mm3 in data set [2] (100 mg/kg, Day 27); 204.82 mm3 and 451.57 mm3 and 233.83 mm3 and 634.63 mm3 and 670.46 mm3 and 340.89 mm3 and 462.95 mm3 and 632.41 mm3 and 762.83 mm3 in data set [2] (100 mg/kg, Day 29); 194.67 mm3 and 510.49 mm3 and 248.22 mm3 and 597.24 mm3 and 633.9 mm3 and 374.45 mm3 and 474.51 mm3 and 507.58 mm3 and 793.64 mm3 in data set [2] (100 mg/kg, Day 31).
